Some of the results follow. Single values are uncertain, as repeats are few or missing.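 The apoptosis fraction was the count of cleaved-PARP antibody-stained nuclei relative to all DNA-stained nuclei, imaged in 1,536-well plates. Screening doses were set so most cells survived, and baseline and induced cleaved-PARP levels vary greatly across cell lines.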

This note sets out measurements from the supplement of paper PMC4604168 (melanoma cell lines).

The test system of this experiment is IST-MEL1. The experiment in a line: cleaved PARP positive nuclei fraction relative to DMSO control; melanoma cells; higher = more apoptosis. The note with it: library dose: low library concentration; 72 h.
Regarding `CN(C)S(=O)(=O)c1ccc2c(c1)/C(=C/c1cc3c([nH]1)CCCC3)C(=O)N2` + COc1cc2ncnc(Nc3ccc(Oc4ccccc4)cc3)c2cc1OC [SrcI1] (first compound 0.4 µM, partner dose 2 µM), the “cleaved PARP positive nuclei fraction” value was 65.1%. In the case of `NCC(=O)Nc1ccc(-n2nc(C(F)(F)F)cc2-c2ccc3c(ccc4ccccc43)c2)cc1` + Cn1cc(/C=C2\C(=O)Nc3cccnc32)c2ccccc21 [GW441756] (first compound 1 µM, partner dose 0.4 µM) it was 88.9%; in that of `O=C(Nc1ccccc1)c1cc([N+](=O)[O-])ccc1Cl` + Oc1cc(-c2nc(-c3ccccc3)[nH]c2-c2ccncc2)ccc1Cl [L779450] (first compound 2 µM, partner dose 0.2 µM), 59.9%; in that of `O=C1NC(=O)/C(=C/c2ccc(-c3ccc(F)cc3O)o2)S1` + c1cc(-c2cnn3cc(-c4ccc(OCCN5CCCCC5)cc4)cnc23)ccn1 [Dorsomorphin] (first compound 1 µM, partner dose 0.4 µM), 80.7%.

For the molecule `COC(=O)c1sccc1S(=O)(=O)Nc1ccc(Nc2ccccc2)cc1OC` + COc1ccc(COc2ccc(Cc3cnc(N)nc3N)cc2OC)cc1 [GW2580] (first compound 1 µM, partner dose 1 µM), the “cleaved PARP positive nuclei fraction” value stood at 41.5%. The figure for `COc1cc2c(Oc3ccc4[nH]c(C)cc4c3F)ncnc2cc1OCCCN1CCCC1` [cediranib] + CCN(CC)CCCCNc1ncc2cc(-c3cc(OC)cc(OC)c3)c(NC(=O)NC(C)(C)C)nc2n1 [PD173074] (first compound 0.4 µM, partner dose 0.1 µM) is 33.3%; for `O=C1NC(=O)/C(=C/c2ccc(-c3ccc(F)cc3O)o2)S1` + COc1cc(N2CCC(N3CCN(C)CC3)CC2)ccc1Nc1ncc(Cl)c(Nc2ccccc2S(=O)(=O)C(C)C)n1 [NVP-TAE684] (first compound 1 µM, partner dose 0.08 µM) it is 145%; for `O=C(O)c1ccc(-c2c[nH]c3ncc(-c4ccccc4)cc23)cc1C1CCCC1` + O=C(O)C(=O)Nc1sc2c(c1C(=O)O)CCNC2 [TCS401] (first compound 0.16 µM, partner dose 1.66667 µM) it is 42.4%. In the case of `CN(NC(=O)CC(=O)NN(C)C(=S)c1ccccc1)C(=S)c1ccccc1` + CCN(CC)CCCCNc1ncc2cc(-c3cc(OC)cc(OC)c3)c(NC(=O)NC(C)(C)C)nc2n1 [PD173074] (first compound 0.006 µM, partner dose 0.1 µM) it was 301%; in that of `NCC(=O)Nc1ccc(-n2nc(C(F)(F)F)cc2-c2ccc3c(ccc4ccccc43)c2)cc1` + Cc1cc([N+](=O)[O-])ccc1NS(=O)(=O)c1cc(Cl)ccc1Cl [FH535] (first compound 1 µM, partner dose 1 µM), 49.6%; in that of `COc1ccc(COc2ccc(Cc3cnc(N)nc3N)cc2OC)cc1` + O=S(=O)(c1ccccc1)N(CC(F)(F)F)c1ccc(C(O)(C(F)(F)F)C(F)(F)F)cc1 [T0901317] (first compound 1 µM, partner dose 1.4 µM), 124%. The figure for `O=C(Nc1ccccc1)c1cc([N+](=O)[O-])ccc1Cl` + COc1ccc(COc2ccc(Cc3cnc(N)nc3N)cc2OC)cc1 [GW2580] (first compound 2 µM, partner dose 1 µM) is 87%.

As for `NCC(=O)Nc1ccc(-n2nc(C(F)(F)F)cc2-c2ccc3c(ccc4ccccc43)c2)cc1` + COc1ccc(-c2ccc3c(N4CCOCC4)nc(N4C[C@@H](C)O[C@@H](C)C4)nc3n2)cc1CO [KU0063794] (first compound 1 µM, partner dose 0.02 µM), the “cleaved PARP positive nuclei fraction” value is 101%. With `COc1cc2c(Oc3ccc4[nH]c(C)cc4c3F)ncnc2cc1OCCCN1CCCC1` [cediranib] + COc1ccc(-c2ccc3c(N4CCOCC4)nc(N4C[C@@H](C)O[C@@H](C)C4)nc3n2)cc1CO [KU0063794] (first compound 0.4 µM, partner dose 0.02 µM), the “cleaved PARP positive nuclei fraction” value was 170%. The figure for `O=S(=O)(c1ccccc1)N(CC(F)(F)F)c1ccc(C(O)(C(F)(F)F)C(F)(F)F)cc1` + CC(C)CCN1c2nc(Nc3cc(F)c(O)c(F)c3)ncc2N(C)C(=O)C1C [BID1870] (first compound 1.4 µM, partner dose 0.2 µM) is 170%.

With `NCC(=O)Nc1ccc(-n2nc(C(F)(F)F)cc2-c2ccc3c(ccc4ccccc43)c2)cc1` + COc1cc2ncnc(Nc3ccc(Oc4ccccc4)cc3)c2cc1OC [SrcI1] (first compound 1 µM, partner dose 2 µM), the “cleaved PARP positive nuclei fraction” value came to 51.3%. `NCC(=O)Nc1ccc(-n2nc(C(F)(F)F)cc2-c2ccc3c(ccc4ccccc43)c2)cc1` + O=C1NC(=O)/C(=C/c2ccc(-c3ccc(F)cc3O)o2)S1 [AS252424] (first compound 1 µM, partner dose 1 µM): the “cleaved PARP positive nuclei fraction” value came out at 115%. `COc1cc2ncnc(Nc3ccc(Oc4ccccc4)cc3)c2cc1OC` + c1cc(-c2cnn3cc(-c4ccc(OCCN5CCCCC5)cc4)cnc23)ccn1 [Dorsomorphin] (first compound 2 µM, partner dose 0.4 µM): the “cleaved PARP positive nuclei fraction” value is 45.5%. In the case of `CCc1ccc(CCOc2ccc(CC3SC(=O)NC3=O)cc2)nc1` (stereo unspecified) [pioglitazone] + COC(=O)c1sccc1S(=O)(=O)Nc1ccc(Nc2ccccc2)cc1OC [GSK0660] (first compound 2 µM, partner dose 1 µM) it was 41.4%; in that of `O=C(Nc1ccccc1)c1cc([N+](=O)[O-])ccc1Cl` + COc1ccc2c(c1)CCC1C2CCC2(C)C(NCCCCCCN3C(=O)C=CC3=O)CCC12 [U73122] (first compound 2 µM, partner dose 0.4 µM), 28.6%. In the case of `COc1cc2c(Oc3ccc4[nH]c(C)cc4c3F)ncnc2cc1OCCCN1CCCC1` [cediranib] + O=C1NC(=O)/C(=C/c2ccc(-c3ccc(F)cc3O)o2)S1 [AS252424] (first compound 0.4 µM, partner dose 1 µM) it was 55.2%. The figure for `O=C(O)c1ccc(-c2c[nH]c3ncc(-c4ccccc4)cc23)cc1C1CCCC1` + CCc1ccc(CCOc2ccc(CC3SC(=O)NC3=O)cc2)nc1 [pioglitazone] (first compound 0.16 µM, partner dose 2 µM) is 249%; for `COc1cc2ncnc(Nc3ccc(Oc4ccccc4)cc3)c2cc1OC` + Oc1cc(-c2nc(-c3ccccc3)[nH]c2-c2ccncc2)ccc1Cl [L779450] (first compound 2 µM, partner dose 0.2 µM) it is 69.3%. Take `Oc1nc(-c2ccc(C(F)(F)F)cc2)nc2c1CSCC2` + O=c1cc(-c2cccc3c2Sc2ccccc2S3)oc(N2CCOCC2)c1 [KU55933] (first compound 2 µM, partner dose 1 µM): the “cleaved PARP positive nuclei fraction” value was 172%. In the case of `COc1ccc(-c2ccc3c(N4CCOCC4)nc(N4C[C@@H](C)O[C@@H](C)C4)nc3n2)cc1CO` + O=S(=O)(c1ccccc1)N(CC(F)(F)F)c1ccc(C(O)(C(F)(F)F)C(F)(F)F)cc1 [T0901317] (first compound 0.02 µM, partner dose 1.4 µM) it was 121%; in that of `N#Cc1c(O)c2c(-c3ccc(-c4ccccc4O)cc3)csc2[nH]c1=O` + Cn1cc(/C=C2\C(=O)Nc3cccnc32)c2ccccc21 [GW441756] (first compound 2 µM, partner dose 0.4 µM), 89.9%. The figure for `NCC(=O)Nc1ccc(-n2nc(C(F)(F)F)cc2-c2ccc3c(ccc4ccccc43)c2)cc1` + O=C(O)C(=O)Nc1sc2c(c1C(=O)O)CCNC2 [TCS401] (first compound 1 µM, partner dose 1.66667 µM) is 64.6%; for `NCC(=O)Nc1ccc(-n2nc(C(F)(F)F)cc2-c2ccc3c(ccc4ccccc43)c2)cc1` + CCc1ccc(CCOc2ccc(CC3SC(=O)NC3=O)cc2)nc1 [pioglitazone] (first compound 1 µM, partner dose 2 µM) it is 48.4%. In the case of `O=C(Nc1ccccc1)c1cc([N+](=O)[O-])ccc1Cl` + CC(C)CCN1c2nc(Nc3cc(F)c(O)c(F)c3)ncc2N(C)C(=O)C1C [BID1870] (first compound 2 µM, partner dose 0.2 µM) it was 191%. As for `O=C(O)c1ccc(-c2c[nH]c3ncc(-c4ccccc4)cc23)cc1C1CCCC1` + Oc1cc(-c2nc(-c3ccccc3)[nH]c2-c2ccncc2)ccc1Cl [L779450] (first compound 0.16 µM, partner dose 0.2 µM), the “cleaved PARP positive nuclei fraction” value turned out to be 156%. Take `CN(C)S(=O)(=O)c1ccc2c(c1)/C(=C/c1cc3c([nH]1)CCCC3)C(=O)N2` + COc1ccc(COc2ccc(Cc3cnc(N)nc3N)cc2OC)cc1 [GW2580] (first compound 0.4 µM, partner dose 1 µM): the “cleaved PARP positive nuclei fraction” value was determined as 85.9%. In the case of `COc1ccc(COc2ccc(Cc3cnc(N)nc3N)cc2OC)cc1` + c1cc(-c2cnn3cc(-c4ccc(OCCN5CCCCC5)cc4)cnc23)ccn1 [Dorsomorphin] (first compound 1 µM, partner dose 0.4 µM) it was 31.5%; in that of `COc1ccc(-c2ccc3c(N4CCOCC4)nc(N4C[C@@H](C)O[C@@H](C)C4)nc3n2)cc1CO` + Oc1cc(-c2nc(-c3ccccc3)[nH]c2-c2ccncc2)ccc1Cl [L779450] (first compound 0.02 µM, partner dose 0.2 µM), 85.8%. In the case of `CCN(CC)CCCCNc1ncc2cc(-c3cc(OC)cc(OC)c3)c(NC(=O)NC(C)(C)C)nc2n1` + Cc1cc([N+](=O)[O-])ccc1NS(=O)(=O)c1cc(Cl)ccc1Cl [FH535] (first compound 0.1 µM, partner dose 1 µM) it was 95.5%.

As to `O=S(=O)(c1ccccc1)N(CC(F)(F)F)c1ccc(C(O)(C(F)(F)F)C(F)(F)F)cc1` + Cc1cc([N+](=O)[O-])ccc1NS(=O)(=O)c1cc(Cl)ccc1Cl [FH535] (first compound 1.4 µM, partner dose 1 µM), the “cleaved PARP positive nuclei fraction” value came to 68%. The figure for `COc1cc2ncnc(Nc3ccc(Oc4ccccc4)cc3)c2cc1OC` + O=C(O)C(=O)Nc1sc2c(c1C(=O)O)CCNC2 [TCS401] (first compound 2 µM, partner dose 1.66667 µM) is 97.2%.
